# Assay results from article PMC12375214.
# Results are given in words; binding and its absence hold for the method and conditions named. In cells and extracts the contact can be indirect. Some results given as binding are weak or reduced against the parent protein; the word gives no strength.
# T1: GCSH, endogenous in TCMK-1 cells (mouse (endogenous in TCMK-1)) (UniProt Q91WK5)
# T1 sequence: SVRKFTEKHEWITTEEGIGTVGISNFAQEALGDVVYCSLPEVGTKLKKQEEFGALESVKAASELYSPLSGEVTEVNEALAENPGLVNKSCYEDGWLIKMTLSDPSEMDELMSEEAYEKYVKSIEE
# Assays:
# [1] = target: T1, GCSH, endogenous in TCMK-1 cells (mouse (endogenous in TCMK-1)); assay: co-IP; TCMK-1 cell lysate, control cells; anti-GCSH antibody 4 h at 4 °C, protein A/G magnetic beads overnight, Western blot
# [2] = target: T1, GCSH, endogenous in TCMK-1 cells (mouse (endogenous in TCMK-1)); assay: condition: only cells treated with FeCl2 (100 μM, 24 h); co-IP; TCMK-1 cells treated with FeCl2 (100 μM, 24 h); anti-GCSH antibody 4 h at 4 °C, protein A/G magnetic beads overnight, Western blot
binder,measurement,setting,value
"lipoic acid synthase (LIAS), endogenous in TCMK-1 cells (enzyme, UniProt Q99M04 27-373) LSSLPDKKKEFLHNGPDLQDFVSGDLADKSTWDEYKGNLKRQKGERLRLPPWLKTKIPMGKNYNKLKNTLRNLSLHTVCEEARCPNIGECWGGGEYATATATIMLMGDTCTRGCRFCSVKTARNPPPLDANEPDNTAKAIAEWGLDYVVLTSVDRDDVADGGAEHIAKTVSCLKERNPKILVECLTPDFRGDLRAVEKVALSGLDVYAHNVETVPELQRKVRDPRANFDQSLRVLRHAKEVQPDVVSKTSIMLGLGETDEQVYATLKALRAADVDCLTLGQYMQPTKRHLKVEEYVTPEKFKYWEKVGNELGFLYTASGPLVRSSYKAGEFFLKNLVARRKTKASKV",binding,[1],binds
same,binding,[2],no binding
